# PubChem BioAssay AID1487 (National Center for Advancing Translational Sciences (NCATS), 2009)
# Values joined by “and” are separate entries in the source; they are usually repeats but may differ in a detail not shown here. Identical values can stand only once. The list shows a part of the results. These are further read-outs of the screen, such as a control signal, another cell line or another target. No call is given for them. Most of these compounds were active or inconclusive in the main read-out, so they are no random draw. Words in brackets tell the shape of the fitted curve; partial curves, single points and poor fits give uncertain potencies.
# Experiment: qHTS Assay for Modulators of Lamin A Splicing
# Details: HeLa LMNA splicing GFP/RFP minigene ratio, 48 h
# Summary of the method: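 S3 HeLa stable clones carrying a lamin A-EGFP splicing minigene plus DsRed2 were seeded at 600 cells/well in Opti-MEM with 2% FBS, pin-dosed and incubated 48 h at 37°C. Acumen cytometry (488 nm) gave the GFP/RFP total-intensity ratio.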
# [1] = measured here: GFP splicing reporter channel
# [2] = measured here: RFP viability control channel
SMILES,AC50 [1],AC50 [2]
Cc1c(C(=O)Nc2ccc(F)c(C(F)(F)F)c2)sc2nc(-c3ccccc3)cn12,"2.51 µM [falling, full curve, poor fit]","3.16 µM [falling, partial curve, poor fit]"
O=C(N/N=C/c1ccc(Sc2ccccn2)o1)c1cc2ccccc2cc1O,,"22.4 µM [rising, single point]"
O=C1c2cccc3cccc(c23)C(=O)N1Cc1ccccc1,"0.501 µM [rising, full curve, poor fit]",
CC(C)c1ccc(OCc2ccc(C(=O)N3CCN(c4ccccn4)CC3)cc2)cc1,"35.5 µM [falling, single point]","25.1 µM [falling, single point]"
CCCC(=O)N(c1ccc2oc(=O)sc2c1)S(=O)(=O)c1cccs1,,"3.98 µM [rising, partial curve]"
CC1=C(C(=O)Nc2cc(Cl)ccc2C)C(c2sccc2C)n2ncnc2N1 (stereo not drawn),,"28.2 µM [rising, partial curve]"
COc1cccc(S(=O)(=O)NCc2ccc(C(=O)Nc3ccc(Cl)c(Cl)c3)cc2)c1,,"5.01 µM [rising, single point]"
CCc1ccc(NC(=O)CSc2nc3ccccc3c(=O)n2CCCC(=O)NCCCN2CCOCC2)cc1,,"22.4 µM [falling, partial curve, poor fit]"
O=C(Nc1ccn(Cc2ccc(Cl)cc2)n1)c1ccc2c(c1)OCO2,"12.6 µM [rising, partial curve, poor fit]","22.4 µM [rising, single point]"
COc1ccccc1CNC(=O)COC(=O)c1ccc(S(=O)(=O)N2CCCC2)cc1,"1.12 µM [rising, full curve]","2.82 µM [rising, partial curve]"
O=C(Nc1ccc(Cl)c(Cl)c1)Nc1ccccc1NS(=O)(=O)c1cccs1,,"25.1 µM [rising, single point]"
CC(C)(C)c1ccc2c(c1)N(CC(=O)NCCCN1CCN(c3ccccc3F)CC1)C(=O)CO2,"2.24 µM [falling, single point]","0.355 µM [falling, partial curve, poor fit]"
CC(=O)N1CC(=O)N=C1SCC(=O)Nc1nc(-c2ccccc2)c(-c2ccccc2)s1,,"14.1 µM [rising, single point]"
CC1CCN(C(=O)CSc2nc(N)c3c4c(sc3n2)CN(C)CC4)CC1,"31.6 µM [rising, single point]",
O=C(CN1C(=O)C2(SCC(=O)N2c2cccc(Cl)c2)c2ccccc21)NCc1ccccc1 (stereo not drawn),"3.16 µM [rising, full curve]","11.2 µM [rising, partial curve]"
CC(C)(C)c1ccc(/C=C2\SC(=O)N(CCNC(=O)c3cccc(S(=O)(=O)N4CCOCC4)c3)C2=O)cc1,,"14.1 µM [rising, partial curve]"
CC(C)(C)c1ccc(OCC(=O)NCC2(N3CCOCC3)CCCCC2)cc1,,"7.08 µM [rising, partial curve]"
Cc1cc(Cl)ccc1N(CC(=O)NCCSCc1ccco1)S(C)(=O)=O,"4.47 µM [rising, partial curve]","5.62 µM [rising, single point]"
C[n+]1cc2c3c(ccc2c2ccc4cc5c(cc4c21)OCO5)OCO3,"3.16 µM [falling, full curve] and 2.51 µM [falling, full curve]","398 nM [falling, full curve, poor fit] and 2.82 µM [falling, full curve]"
COc1ccc(-c2cn3nc(N4CCC(C(=O)Nc5cc(Cl)ccc5C)CC4)sc3n2)cc1,"0.0891 µM [falling, full curve, poor fit]",
O=C(Cn1cnc2c(cnn2-c2ccc(Cl)cc2)c1=O)NCCc1ccccc1,,"3.16 µM [rising, single point]"
CC(=O)N1CCN(CC(=O)Nc2ccccc2Sc2ccc(Cl)cc2)CC1,,"35.5 µM [rising, single point]"
CCNC(=O)CC1C(=O)N(c2ccc(F)cc2)C(=O)N1CCc1sccc1C (stereo not drawn),"1.26 µM [rising, single point]",
Cc1ccc(C)c(NC(=S)N(Cc2cccc(Br)c2)CC2CCC(C(=O)O)CC2)c1 (stereo not drawn),,"4.47 µM [rising, partial curve]"
CN(C)C(=O)c1cc2cc(Br)ccc2s1,"5.62 µM [rising, partial curve]","5.01 µM [rising, single point]"
CC(C)n1nc(C(=O)Nc2ccccc2N2CCOCC2)c2ccccc2c1=O,"3.98 µM [rising, full curve, poor fit]",
S=C(NCc1ccccc1)Nc1cccc(Cl)c1,,"35.5 µM [rising, single point]"

SMILES,AC50 [1],AC50 [2]
Cc1ccc(NC(=O)Nc2ccccc2CC[N+](=O)[O-])cc1,"0.01 µM [falling, full curve]",
Cc1cc(C)cc(NC(=O)c2ccc([N+](=O)[O-])o2)c1,,"35.5 µM [falling, single point]"
CC1CCN(c2ncnc3c2c(-c2ccccc2)cn3-c2ccc(Br)cc2)CC1,"0.316 µM [falling, partial curve, poor fit]",
Cn1c(NC(=O)c2ccccc2)c(-c2cccs2)c(=O)c2ccccc21,,"15.8 µM [rising, single point]"
O=C(Nc1ccc(Oc2ccc3ccccc3c2)cc1)c1ccco1,"25.1 µM [rising, single point]","25.1 µM [rising, single point]"
CCc1ccc(-n2c(=O)c3c(C)c(C(=O)N(C)C)sc3n(CC(=O)NCC3CCCO3)c2=O)cc1 (stereo not drawn),"17.8 µM [rising, single point]",
CC(NC(=O)OCc1ccccc1)C(=O)N1CC(O)CC1C(=O)O (stereo not drawn),"11.2 µM [falling, partial curve, poor fit]","12.6 µM [falling, partial curve]"
COc1ccc(C(=O)/C=C/C(=O)N(Cc2ccc3c(c2)OCO3)C(C(=O)NC2CCCCC2)c2ccncc2)c(O)c1 (stereo not drawn),"35.5 µM [falling, single point]",
COc1ccc(NCc2nc3ccccc3n2CCOc2ccc(C)cc2)cc1,,"10 µM [rising, partial curve]"
C=CCn1c(=O)c2c(nc3n2CCN3c2cccc(Cl)c2C)n(C)c1=O,"11.2 µM [rising, single point]","14.1 µM [rising, single point]"
CC(C)n1cc(NC(=O)c2cc(-c3ccccc3)on2)cn1,,"3.55 µM [rising, single point]"
Nc1ccc(Oc2ccc3nc(-c4ccccc4)c(-c4ccccc4)nc3c2)cc1,"12.6 µM [falling, single point]","11.2 µM [falling, partial curve]"
CC1CCN(C(=O)Nc2cccc(NC(=O)N3CCC(C)CC3)c2)CC1,,"35.5 µM [rising, single point]"
O=C1CCc2ccc(NC(=O)C3CC3)cc2N1,"0.708 µM [rising, single point]",
COc1ccccc1NC(=O)C1=C(C)NC2=C(C(=O)CC(c3ccc(OC)c(OC)c3)C2)C1c1coc2ccccc2c1=O (stereo not drawn),"12.6 µM [rising, single point]","22.4 µM [rising, single point]"
COc1ccccc1-c1cncnc1NCCN1CCOCC1,"12.6 µM [falling, single point]","20 µM [falling, partial curve]"
CC(=O)N1CCCc2cc(S(=O)(=O)NCCC3=CCCCC3)ccc21,,"7.94 µM [rising, partial curve]"
CN1CCN(c2ccc(NC(=O)c3ccc4c(c3)OCCO4)cc2Cl)CC1,"4.47 µM [falling, full curve]",
COc1cc(CN2CCNC(=O)C2CC(=O)NCCC2=CCCCC2)cc(OC)c1 (stereo not drawn),"0.0447 µM [rising, full curve, poor fit]","0.0355 µM [rising, full curve, poor fit]"
CC(C)CCNC(=O)NC(=O)COC(=O)CNC(=O)C1CCCCC1,,"0.00316 µM [falling, full curve]"
CN(C)c1nc2ccccc2c(N)c1-c1ccccc1,,"3.98 µM [rising, full curve]"
COc1ccc(-n2nc(C(=O)NCC(=O)NCc3ccc(F)cc3)c3ccccc3c2=O)c(OC)c1,"35.5 µM [falling, single point]","35.5 µM [falling, single point]"
O=C(NC1=NCCS1)C1CC(=O)N(c2ccc(Cl)cc2)C1 (stereo not drawn),"0.0891 µM [falling, full curve, poor fit]",
Cc1ccc(Cl)cc1N1CCN(C(=S)NCCc2ccccc2)CC1,,"10 µM [rising, partial curve]"
CCCc1nn(C)c(C(=O)Nc2cccc3ccccc23)c1Cl,"15.8 µM [rising, partial curve]","20 µM [rising, partial curve]"
O=c1cc(N2CCCCC2)c(-c2ccccc2)nn1Cc1ccc(Cl)cc1Cl,"35.5 µM [falling, single point]","22.4 µM [falling, partial curve]"
Cc1ccc(-n2ncc3c(N4CCC(C)CC4)ncnc32)cc1C,"0.0224 µM [falling, full curve, poor fit]",
